No constants are given. Whether binding was seen depends on the method and setting. Binding seen in cells or lysates may run through a third protein. Some entries that bind do so weakly or less than the wild type. Where a sequence is shown, tags or fusion partners need not be part of it.

Protein sequences, listed by entry. Tags and fused reporters are not part of them. Lines headed by an entry give the natural chain unless they say otherwise; changes in a name come on top.
UniProt Q14160: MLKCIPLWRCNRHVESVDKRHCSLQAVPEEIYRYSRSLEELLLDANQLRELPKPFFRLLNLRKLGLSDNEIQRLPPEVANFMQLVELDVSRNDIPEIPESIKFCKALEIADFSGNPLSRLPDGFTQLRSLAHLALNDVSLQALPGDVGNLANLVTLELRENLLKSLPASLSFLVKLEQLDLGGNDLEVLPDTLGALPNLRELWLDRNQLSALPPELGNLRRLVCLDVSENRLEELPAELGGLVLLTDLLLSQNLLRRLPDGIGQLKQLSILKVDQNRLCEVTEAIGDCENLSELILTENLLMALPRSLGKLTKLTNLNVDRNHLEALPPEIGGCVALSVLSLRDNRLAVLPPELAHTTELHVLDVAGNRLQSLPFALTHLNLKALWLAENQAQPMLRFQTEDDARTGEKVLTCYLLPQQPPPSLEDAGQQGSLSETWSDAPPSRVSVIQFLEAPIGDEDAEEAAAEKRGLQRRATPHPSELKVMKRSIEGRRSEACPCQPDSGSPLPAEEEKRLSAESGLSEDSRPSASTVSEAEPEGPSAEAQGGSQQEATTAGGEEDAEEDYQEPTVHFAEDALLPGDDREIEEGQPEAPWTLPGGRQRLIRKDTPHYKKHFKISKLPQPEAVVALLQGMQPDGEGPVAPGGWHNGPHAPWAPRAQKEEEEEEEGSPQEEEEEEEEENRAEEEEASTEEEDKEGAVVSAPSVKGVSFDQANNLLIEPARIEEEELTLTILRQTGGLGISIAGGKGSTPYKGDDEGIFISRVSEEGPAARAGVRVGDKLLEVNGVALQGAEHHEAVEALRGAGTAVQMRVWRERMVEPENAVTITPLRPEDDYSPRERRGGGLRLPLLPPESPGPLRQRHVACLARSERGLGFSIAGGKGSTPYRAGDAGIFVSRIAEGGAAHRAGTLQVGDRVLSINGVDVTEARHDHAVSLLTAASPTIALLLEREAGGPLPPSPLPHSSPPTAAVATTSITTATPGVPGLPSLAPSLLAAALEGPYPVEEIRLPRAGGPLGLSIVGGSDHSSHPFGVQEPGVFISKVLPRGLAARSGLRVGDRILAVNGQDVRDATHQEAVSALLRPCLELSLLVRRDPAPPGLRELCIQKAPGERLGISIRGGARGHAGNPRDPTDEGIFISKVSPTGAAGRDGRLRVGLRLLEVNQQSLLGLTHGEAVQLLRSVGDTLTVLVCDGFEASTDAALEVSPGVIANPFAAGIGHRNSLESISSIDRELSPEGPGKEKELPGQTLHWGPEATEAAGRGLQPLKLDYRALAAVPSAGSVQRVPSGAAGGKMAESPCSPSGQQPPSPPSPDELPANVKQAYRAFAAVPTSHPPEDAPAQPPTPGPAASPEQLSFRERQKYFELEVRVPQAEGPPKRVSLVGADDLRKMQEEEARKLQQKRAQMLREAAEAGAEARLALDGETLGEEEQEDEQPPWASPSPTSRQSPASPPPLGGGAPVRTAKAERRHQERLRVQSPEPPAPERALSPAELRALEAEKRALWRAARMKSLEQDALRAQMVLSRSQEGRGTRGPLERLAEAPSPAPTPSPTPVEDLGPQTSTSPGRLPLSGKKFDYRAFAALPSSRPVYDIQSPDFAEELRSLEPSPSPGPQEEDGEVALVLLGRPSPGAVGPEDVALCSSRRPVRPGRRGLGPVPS

The values that follow come from publication PMC3724847.

This experiment concerns the target T1, HA-VANGL2 (hemagglutinin-tagged VANGL2) (UniProt Q9ULK5).
T1 sequence: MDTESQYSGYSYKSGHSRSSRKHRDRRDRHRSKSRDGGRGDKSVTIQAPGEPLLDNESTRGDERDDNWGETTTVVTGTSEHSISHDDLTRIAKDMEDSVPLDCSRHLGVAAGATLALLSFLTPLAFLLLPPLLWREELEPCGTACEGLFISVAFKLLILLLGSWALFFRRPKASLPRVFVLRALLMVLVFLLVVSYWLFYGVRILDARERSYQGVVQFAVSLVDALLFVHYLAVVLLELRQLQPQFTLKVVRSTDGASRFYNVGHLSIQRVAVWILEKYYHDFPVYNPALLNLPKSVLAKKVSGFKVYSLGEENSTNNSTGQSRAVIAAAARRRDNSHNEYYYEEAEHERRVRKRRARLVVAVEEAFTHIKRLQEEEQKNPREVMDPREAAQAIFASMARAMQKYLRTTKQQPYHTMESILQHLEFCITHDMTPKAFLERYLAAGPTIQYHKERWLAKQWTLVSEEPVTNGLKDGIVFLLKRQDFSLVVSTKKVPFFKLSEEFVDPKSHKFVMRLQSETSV
The experiment is described as follows: co-IP; HEK293T cells co-transfected with GFP-SCRIB (or mutant) and HA-VANGL2, lysed 24 h later in 1% NP-40 buffer; HA immunoprecipitation (Pierce HA Tag IP/Co-IP Kit), blot with anti-GFP and anti-HA.
In the case of “GFP-SCRIB p.A1315T (from UniProt Q14160 1-1655)”, the binding result is reported as “binds”.
The result for “GFP-SCRIB p.P1332L (from UniProt Q14160 1-1655)” reads “binds”.
The result for “GFP-SCRIB p.A366T (from UniProt Q14160 1-1655)” reads “binds”; that for “GFP-SCRIB p.P1043L (from UniProt Q14160 1-1655)”, “binds”.
Next, “GFP-SCRIB wild type (human SCRIB full-length cDNA in pEGFP-C1) (from UniProt Q14160 1-1655)”: “binds”.
As to “GFP-SCRIB p.T552M (from UniProt Q14160 1-1655)”, the binding result is recorded as “binds”.
In the case of “GFP-SCRIB p.L1520R (from UniProt Q14160 1-1655)”, the binding result is “binds”.
